Experimental data taken from the supplement of paper PMC10849652.
The other results are listed elsewhere or left out.

Chains of the proteins cited; added tags and fusions are not shown. Lines headed by an entry give the natural chain unless they say otherwise; changes in a name come on top.
UniProt Q9NRG1: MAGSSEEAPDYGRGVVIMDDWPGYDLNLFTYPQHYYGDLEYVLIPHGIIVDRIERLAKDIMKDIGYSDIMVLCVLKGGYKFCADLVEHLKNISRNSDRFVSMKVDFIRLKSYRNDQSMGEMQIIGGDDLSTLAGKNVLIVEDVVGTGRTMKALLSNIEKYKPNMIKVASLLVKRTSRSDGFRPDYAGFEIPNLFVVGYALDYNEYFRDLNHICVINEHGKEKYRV
UniProt P28066: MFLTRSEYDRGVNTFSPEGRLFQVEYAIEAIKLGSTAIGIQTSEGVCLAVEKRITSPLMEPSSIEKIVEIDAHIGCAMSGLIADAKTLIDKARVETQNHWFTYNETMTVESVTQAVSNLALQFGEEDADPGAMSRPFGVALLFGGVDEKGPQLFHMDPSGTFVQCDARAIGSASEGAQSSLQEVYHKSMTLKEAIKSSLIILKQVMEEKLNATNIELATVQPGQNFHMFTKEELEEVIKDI
UniProt Q9Y617: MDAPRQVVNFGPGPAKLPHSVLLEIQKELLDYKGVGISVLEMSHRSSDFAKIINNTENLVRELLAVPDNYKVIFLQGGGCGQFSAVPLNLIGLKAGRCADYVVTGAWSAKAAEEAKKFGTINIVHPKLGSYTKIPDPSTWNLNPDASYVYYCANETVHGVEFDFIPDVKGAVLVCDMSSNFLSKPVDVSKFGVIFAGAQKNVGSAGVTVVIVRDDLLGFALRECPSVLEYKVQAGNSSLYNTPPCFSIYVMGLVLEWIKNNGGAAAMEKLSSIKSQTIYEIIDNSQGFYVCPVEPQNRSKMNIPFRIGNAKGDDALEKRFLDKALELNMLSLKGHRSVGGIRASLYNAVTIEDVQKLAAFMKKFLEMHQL
UniProt O00233: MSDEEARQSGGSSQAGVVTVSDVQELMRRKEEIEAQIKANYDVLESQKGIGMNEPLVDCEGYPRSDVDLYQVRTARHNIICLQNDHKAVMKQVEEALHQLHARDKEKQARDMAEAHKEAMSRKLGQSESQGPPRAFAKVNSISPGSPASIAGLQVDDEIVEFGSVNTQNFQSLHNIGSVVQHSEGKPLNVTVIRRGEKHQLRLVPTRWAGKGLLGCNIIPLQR
UniProt Q7Z7A4: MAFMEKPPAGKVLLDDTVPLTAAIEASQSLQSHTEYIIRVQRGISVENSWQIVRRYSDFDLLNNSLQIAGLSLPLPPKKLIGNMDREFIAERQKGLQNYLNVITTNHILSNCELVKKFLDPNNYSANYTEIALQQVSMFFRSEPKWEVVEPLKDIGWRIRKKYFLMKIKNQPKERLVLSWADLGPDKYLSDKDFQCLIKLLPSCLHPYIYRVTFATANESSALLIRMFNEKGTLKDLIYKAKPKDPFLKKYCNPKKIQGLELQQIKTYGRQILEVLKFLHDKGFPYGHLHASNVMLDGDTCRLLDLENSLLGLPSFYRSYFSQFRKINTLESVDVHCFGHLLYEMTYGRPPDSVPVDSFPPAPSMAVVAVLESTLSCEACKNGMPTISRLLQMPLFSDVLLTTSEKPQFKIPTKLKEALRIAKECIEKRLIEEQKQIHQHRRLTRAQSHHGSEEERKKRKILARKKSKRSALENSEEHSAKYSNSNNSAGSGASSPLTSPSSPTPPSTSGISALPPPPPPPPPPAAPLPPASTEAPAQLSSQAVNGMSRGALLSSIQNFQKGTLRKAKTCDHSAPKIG
UniProt Q3MIT2: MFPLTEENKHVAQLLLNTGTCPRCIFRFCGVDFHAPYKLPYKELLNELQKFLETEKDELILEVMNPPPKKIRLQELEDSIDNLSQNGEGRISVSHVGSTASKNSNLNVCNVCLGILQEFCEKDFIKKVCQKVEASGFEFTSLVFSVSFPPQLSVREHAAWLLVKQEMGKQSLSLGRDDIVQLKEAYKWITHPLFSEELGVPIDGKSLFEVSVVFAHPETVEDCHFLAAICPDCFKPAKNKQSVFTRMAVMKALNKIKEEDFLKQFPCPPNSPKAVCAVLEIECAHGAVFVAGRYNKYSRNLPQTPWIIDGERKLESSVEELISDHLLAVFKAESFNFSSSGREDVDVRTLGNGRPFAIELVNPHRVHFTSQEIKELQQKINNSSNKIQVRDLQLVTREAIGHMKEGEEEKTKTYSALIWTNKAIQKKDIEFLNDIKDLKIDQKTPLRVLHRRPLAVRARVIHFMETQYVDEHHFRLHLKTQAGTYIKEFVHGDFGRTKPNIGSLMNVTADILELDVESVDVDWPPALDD
UniProt Q05209: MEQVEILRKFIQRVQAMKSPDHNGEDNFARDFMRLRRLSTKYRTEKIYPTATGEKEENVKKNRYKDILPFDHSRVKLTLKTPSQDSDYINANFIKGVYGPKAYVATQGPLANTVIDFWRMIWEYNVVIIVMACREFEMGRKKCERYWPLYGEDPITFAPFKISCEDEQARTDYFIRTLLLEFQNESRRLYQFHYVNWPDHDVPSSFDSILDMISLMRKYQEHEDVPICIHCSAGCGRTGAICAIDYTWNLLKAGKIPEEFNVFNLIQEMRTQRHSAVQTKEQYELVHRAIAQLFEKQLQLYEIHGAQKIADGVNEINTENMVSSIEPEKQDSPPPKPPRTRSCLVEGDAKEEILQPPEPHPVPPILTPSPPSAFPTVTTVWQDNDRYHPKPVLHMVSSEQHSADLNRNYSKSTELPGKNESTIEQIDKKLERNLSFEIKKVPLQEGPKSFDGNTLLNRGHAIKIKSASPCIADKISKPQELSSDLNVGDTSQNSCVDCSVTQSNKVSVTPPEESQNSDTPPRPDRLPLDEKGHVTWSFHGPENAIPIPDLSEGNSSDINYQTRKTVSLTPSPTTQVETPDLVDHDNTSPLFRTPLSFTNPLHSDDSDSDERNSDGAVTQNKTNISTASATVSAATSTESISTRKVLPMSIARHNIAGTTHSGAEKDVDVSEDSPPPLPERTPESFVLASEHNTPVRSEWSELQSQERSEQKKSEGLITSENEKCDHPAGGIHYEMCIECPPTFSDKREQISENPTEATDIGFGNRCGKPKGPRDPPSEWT
UniProt P20962: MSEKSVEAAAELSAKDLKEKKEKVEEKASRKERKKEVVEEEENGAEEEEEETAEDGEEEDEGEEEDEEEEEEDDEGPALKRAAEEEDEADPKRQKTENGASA
UniProt Q8TB72: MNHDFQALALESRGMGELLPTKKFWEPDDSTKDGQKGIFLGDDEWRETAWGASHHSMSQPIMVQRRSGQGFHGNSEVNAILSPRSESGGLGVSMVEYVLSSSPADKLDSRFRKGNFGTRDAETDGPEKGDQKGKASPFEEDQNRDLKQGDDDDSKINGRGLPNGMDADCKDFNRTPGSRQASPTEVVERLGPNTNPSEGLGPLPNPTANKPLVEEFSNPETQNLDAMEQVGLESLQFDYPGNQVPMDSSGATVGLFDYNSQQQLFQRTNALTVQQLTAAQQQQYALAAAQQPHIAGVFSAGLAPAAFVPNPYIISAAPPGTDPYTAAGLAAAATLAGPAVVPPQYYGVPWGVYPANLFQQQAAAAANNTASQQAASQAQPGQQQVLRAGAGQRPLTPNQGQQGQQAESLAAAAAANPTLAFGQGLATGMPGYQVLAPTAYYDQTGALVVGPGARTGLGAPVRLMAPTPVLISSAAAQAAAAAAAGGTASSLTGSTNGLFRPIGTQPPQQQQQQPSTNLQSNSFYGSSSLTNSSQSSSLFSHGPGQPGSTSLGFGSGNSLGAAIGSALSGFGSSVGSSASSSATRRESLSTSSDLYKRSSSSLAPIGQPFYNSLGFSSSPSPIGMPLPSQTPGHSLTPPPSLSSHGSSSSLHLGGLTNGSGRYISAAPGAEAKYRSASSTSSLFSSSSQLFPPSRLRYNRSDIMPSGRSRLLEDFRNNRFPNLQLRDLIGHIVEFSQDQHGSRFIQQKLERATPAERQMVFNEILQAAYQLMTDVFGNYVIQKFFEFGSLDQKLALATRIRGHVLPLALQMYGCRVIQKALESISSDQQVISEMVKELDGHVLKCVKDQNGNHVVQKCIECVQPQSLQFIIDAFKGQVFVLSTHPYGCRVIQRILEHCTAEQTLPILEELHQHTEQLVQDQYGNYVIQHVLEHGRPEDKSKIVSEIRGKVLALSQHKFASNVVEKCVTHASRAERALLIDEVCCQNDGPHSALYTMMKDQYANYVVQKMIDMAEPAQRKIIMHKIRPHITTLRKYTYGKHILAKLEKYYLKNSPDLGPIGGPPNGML
UniProt Q15269: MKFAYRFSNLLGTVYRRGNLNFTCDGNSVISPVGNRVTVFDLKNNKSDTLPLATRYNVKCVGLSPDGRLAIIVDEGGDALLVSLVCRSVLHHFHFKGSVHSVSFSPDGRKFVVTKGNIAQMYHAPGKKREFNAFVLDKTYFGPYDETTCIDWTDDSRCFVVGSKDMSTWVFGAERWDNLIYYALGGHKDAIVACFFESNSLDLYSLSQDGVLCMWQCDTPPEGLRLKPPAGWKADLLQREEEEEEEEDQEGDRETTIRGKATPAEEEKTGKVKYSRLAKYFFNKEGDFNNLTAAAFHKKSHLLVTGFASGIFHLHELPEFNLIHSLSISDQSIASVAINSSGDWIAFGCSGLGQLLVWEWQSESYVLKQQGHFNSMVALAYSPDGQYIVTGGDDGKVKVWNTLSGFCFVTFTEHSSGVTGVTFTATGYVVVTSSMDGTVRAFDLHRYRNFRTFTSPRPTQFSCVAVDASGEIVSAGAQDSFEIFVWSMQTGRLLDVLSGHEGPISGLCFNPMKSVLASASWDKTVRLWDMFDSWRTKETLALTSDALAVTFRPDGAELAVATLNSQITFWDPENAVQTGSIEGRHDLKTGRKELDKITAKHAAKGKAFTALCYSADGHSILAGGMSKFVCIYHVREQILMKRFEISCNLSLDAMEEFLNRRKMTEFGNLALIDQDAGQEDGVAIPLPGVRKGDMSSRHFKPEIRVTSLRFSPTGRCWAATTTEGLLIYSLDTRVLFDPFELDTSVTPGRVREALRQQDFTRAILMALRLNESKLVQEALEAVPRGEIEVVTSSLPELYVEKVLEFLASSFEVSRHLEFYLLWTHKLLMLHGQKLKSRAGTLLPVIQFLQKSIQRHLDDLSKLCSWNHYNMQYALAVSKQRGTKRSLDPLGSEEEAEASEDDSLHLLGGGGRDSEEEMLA
UniProt P62195, whole entry, looked up: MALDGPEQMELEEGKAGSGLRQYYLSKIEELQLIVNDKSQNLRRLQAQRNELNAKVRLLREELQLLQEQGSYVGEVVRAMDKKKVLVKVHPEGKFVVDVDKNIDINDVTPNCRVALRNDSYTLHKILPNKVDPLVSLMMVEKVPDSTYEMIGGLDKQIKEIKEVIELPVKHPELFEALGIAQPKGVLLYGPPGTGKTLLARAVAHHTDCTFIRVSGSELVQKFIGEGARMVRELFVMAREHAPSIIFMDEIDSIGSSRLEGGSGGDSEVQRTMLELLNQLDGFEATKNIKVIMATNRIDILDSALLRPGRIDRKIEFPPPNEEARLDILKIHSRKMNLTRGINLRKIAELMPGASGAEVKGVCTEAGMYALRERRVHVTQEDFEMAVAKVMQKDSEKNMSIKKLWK
UniProt Q9H939: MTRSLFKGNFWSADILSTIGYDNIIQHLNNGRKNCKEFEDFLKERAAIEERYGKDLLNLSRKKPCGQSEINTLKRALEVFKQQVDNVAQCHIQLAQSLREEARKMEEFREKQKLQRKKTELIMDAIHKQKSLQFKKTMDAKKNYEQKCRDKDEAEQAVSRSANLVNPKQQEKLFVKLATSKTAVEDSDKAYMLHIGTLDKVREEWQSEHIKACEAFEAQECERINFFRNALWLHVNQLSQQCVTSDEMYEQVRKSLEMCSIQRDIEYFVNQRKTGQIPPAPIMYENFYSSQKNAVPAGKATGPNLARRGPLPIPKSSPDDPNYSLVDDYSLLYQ
UniProt Q8TBF2: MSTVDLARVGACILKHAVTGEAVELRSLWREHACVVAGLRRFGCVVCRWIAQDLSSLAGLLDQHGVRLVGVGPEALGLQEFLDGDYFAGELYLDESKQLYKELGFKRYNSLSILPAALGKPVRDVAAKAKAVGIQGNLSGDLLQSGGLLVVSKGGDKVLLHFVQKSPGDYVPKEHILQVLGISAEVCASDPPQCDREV
UniProt P25787: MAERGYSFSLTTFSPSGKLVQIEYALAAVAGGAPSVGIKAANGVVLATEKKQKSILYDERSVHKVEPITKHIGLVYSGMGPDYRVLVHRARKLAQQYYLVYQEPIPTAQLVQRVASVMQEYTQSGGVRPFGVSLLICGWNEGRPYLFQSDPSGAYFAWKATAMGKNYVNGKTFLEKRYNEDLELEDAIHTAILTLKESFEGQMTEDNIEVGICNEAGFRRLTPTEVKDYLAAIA
UniProt Q15008: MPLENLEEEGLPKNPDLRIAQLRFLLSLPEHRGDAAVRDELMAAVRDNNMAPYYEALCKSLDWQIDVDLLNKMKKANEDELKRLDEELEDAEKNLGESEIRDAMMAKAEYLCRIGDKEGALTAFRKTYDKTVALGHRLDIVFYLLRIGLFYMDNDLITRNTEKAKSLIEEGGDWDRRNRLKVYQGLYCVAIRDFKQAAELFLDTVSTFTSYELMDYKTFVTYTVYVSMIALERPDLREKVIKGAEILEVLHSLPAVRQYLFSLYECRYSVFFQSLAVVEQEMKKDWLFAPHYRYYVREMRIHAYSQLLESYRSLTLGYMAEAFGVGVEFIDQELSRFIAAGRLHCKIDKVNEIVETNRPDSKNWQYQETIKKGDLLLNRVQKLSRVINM

Compound: Cn1cncc1[C@@](N)(c1ccc(Cl)cc1)c1ccc2c(c1)c(-c1cccc(Cl)c1)cc(=O)n2C [tipifarnib]
Assay: log2 fold change, soluble protein after heating vs DMSO (PISA); higher = thermal stabilisation; K562 cells, 10 uM, 30 min; active = over 0.2 and 3.5 SD of the protein, either way, in both replicates (recomputed)
In short: (§1)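 Soluble protein was defined as the supernatant after 21,000xg for 90 min. It came from K562 cells at 2×10^6 cells/mL given 10 μM compound for 30 min, heated in aliquots for 3 min across 48°C-58°C, pooled, and extracted in PBS with 0.5% NP-40 at 4°C, and was quantified by TMTpro 16plex LC-MS/MS with equalised channel sums. Thermal stability against control samples, from duplicates, is reported as log2 fold change.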

| Target | log2 fold change |
| --- | --- |
| PRTFDC1 (UniProt Q9NRG1) | inactive: 0.049 |
| PSMC2 (UniProt P35998) | inactive: 0.113 |
| PYCR3 (UniProt Q53H96) | inactive: 0.013 |
| PSMA5 (UniProt P28066) | inactive: 0.02 |
| PSAT1 (UniProt Q9Y617) | inactive: -0.014 |
| PSIP1 (UniProt O75475) | inactive: 0.152 |
| PSMD9 (UniProt O00233) | inactive: 0.04 |
| PXK (UniProt Q7Z7A4) | inactive: -0.001 |
| PSAP isoform 3 (UniProt P07602) | inactive: 0.028 |
| PSMB6 (UniProt P28072) | inactive: 0.125 |
| PYGL (UniProt P06737) | inactive: 0.016 |

Compound: FC(F)(F)c1ccc(/C=C/c2nc(COc3ccc(CCCCn4ccnn4)cc3)co2)cc1 [mubritinib]
Assay: as above
In short: as §1

| Target | log2 fold change |
| --- | --- |
| PUS10 (UniProt Q3MIT2) | inactive: -0.059 |
| PTPN12 (UniProt Q05209) | inactive: 0.021 |
| PSMC1 (UniProt P62191) | inactive: -0.015 |
| PTPMT1 (UniProt Q8WUK0) | inactive: -0.006 |
| PTMS (UniProt P20962) | inactive: 0 |
| PUM2 (UniProt Q8TB72) | inactive: 0.037 |
| PWP2 (UniProt Q15269) | inactive: -0.059 |
| PTER (UniProt Q96BW5) | inactive: 0.003 |
| PSMD13 (UniProt Q9UNM6) | inactive: -0.019 |
| QTRT2 isoform 4 (UniProt Q9H974) | inactive: 0.039 |
| PSMC5 (UniProt P62195) | inactive: -0.014 |
| PTRHD1 (UniProt Q6GMV3) | inactive: 0.043 |
| PTDSS2 (UniProt Q9BVG9) | inactive: 0.047 |
| PTAR1 (UniProt Q7Z6K3) | inactive: 0 |
| QKI (UniProt Q96PU8) | inactive: 0.003 |
| PSTPIP2 (UniProt Q9H939) | inactive: -0.011 |
| PSMA1 isoform 2 (UniProt P25786) | inactive: -0.009 |

| Target | log2 fold change |
| --- | --- |
| PTK2B (UniProt Q14289) | inactive: -0.003 |
| PWP1 (UniProt Q13610) | inactive: -0.111 |
| PRXL2B isoform 3 (UniProt Q8TBF2) | inactive: 0.036 |
| PTDSS1 (UniProt P48651) | inactive: -0.074 |
| PSMA2 (UniProt P25787) | inactive: -0.003 |
| PSMD6 (UniProt Q15008) | inactive: -0.012 |
| PRTFDC1 (UniProt Q9NRG1) | inactive: 0.012 |
| PSMC2 (UniProt P35998) | inactive: -0.031 |
| PYCR3 (UniProt Q53H96) | inactive: 0 |
| PSMA5 (UniProt P28066) | inactive: -0.002 |
| PSAT1 (UniProt Q9Y617) | inactive: 0.027 |
| PSIP1 (UniProt O75475) | inactive: -0.058 |
| PSMD9 (UniProt O00233) | inactive: 0.009 |
| PXK (UniProt Q7Z7A4) | inactive: 0.098 |
| PSAP isoform 3 (UniProt P07602) | inactive: 0.007 |
| PSMB6 (UniProt P28072) | inactive: -0.014 |
| PYGL (UniProt P06737) | inactive: 0.052 |
